Measurements published in US20260034230A1.
No constants are given. Whether binding was seen depends on the method and setting. Some binding calls cover weakened binding; strength is not graded here.

Amino acid sequences for entries named in this document (tags omitted). A change or cut given only in a name is not applied to a line headed by its entry. Chains listed by the source or under a name are the forms on record and can include a tag or linker.
REGN2120, hTfR(C89-F763).mmh (P02786, form named): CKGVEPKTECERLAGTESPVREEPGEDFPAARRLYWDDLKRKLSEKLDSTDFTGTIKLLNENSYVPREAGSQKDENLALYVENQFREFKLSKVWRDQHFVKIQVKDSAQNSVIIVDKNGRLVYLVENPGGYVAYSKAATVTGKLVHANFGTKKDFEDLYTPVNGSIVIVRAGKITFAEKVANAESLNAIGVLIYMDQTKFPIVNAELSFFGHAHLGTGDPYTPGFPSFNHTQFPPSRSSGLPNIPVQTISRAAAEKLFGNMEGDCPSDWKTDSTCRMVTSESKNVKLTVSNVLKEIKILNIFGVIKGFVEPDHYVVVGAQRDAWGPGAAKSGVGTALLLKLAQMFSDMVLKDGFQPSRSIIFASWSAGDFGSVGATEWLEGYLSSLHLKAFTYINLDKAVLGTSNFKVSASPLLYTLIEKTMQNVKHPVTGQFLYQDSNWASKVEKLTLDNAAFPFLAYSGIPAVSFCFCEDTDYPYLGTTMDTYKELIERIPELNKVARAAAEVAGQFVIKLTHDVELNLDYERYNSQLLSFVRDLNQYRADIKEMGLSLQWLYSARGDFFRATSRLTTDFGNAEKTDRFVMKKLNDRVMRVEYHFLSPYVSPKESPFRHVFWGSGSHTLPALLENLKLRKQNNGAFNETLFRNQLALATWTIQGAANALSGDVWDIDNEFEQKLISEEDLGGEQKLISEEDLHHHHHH

Experiments:
[1] = biological target: hTfR(C89-F763).mmh (REGN2120) (human) (UniProt P02786); assay: HDX-MS, antibody mixed with hTfR.mmh
[2] = biological target: REGN2120, hTfR(C89-F763).mmh (human) (UniProt P02786); assay: HDX-MS, hTfR in mixture with the mAb

B1: REGN17517 (H1H31874B) (antibody, human IgG1, kappa, V domains shown)
VH: EVQLVESGGGLVQPGGSLRLSCAASGFAFSSYAMTWVRQAPGKGLEWVSVISGTGGSTYYADSVKGRFTISRDNSKNTLYLQMNSLRAEDTAVYYCAKGGAARRMEYFQYWGQGTLVTVSS
VL: DIQMTQSPSSLSASVGDRVTITCRASQGISNYLAWYQQKPGKVPNLLIYAASTLQSGVPSRFSGSGSGTDFTLTISSLQPEDVATYYCQKYNSAPLTFGGGTKVEIKR
binding [1]: binds | binding [2]: binds
